This is an account of results in patent US20060160092A1.

Sequences of proteins named here, by UniProt entry; tags and fusion partners are left off. Residues count along the entry.
UniProt P12814, residues 406-892: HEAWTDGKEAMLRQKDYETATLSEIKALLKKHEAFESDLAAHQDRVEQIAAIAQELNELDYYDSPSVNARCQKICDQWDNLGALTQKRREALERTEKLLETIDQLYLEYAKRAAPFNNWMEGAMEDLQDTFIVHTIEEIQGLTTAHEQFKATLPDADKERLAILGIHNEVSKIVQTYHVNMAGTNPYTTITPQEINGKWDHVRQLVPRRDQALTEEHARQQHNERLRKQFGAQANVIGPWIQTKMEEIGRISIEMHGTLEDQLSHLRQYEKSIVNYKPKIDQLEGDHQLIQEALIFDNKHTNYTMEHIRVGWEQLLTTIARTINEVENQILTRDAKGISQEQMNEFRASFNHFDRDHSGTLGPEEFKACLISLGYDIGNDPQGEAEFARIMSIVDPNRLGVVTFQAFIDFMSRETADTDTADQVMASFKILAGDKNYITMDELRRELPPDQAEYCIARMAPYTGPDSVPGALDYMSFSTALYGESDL

Assay [1] concerns the target T1, T7-tagged DIL domain (aa 606-983) of afadin (UniProt O35889).
T1 sequence (looked up): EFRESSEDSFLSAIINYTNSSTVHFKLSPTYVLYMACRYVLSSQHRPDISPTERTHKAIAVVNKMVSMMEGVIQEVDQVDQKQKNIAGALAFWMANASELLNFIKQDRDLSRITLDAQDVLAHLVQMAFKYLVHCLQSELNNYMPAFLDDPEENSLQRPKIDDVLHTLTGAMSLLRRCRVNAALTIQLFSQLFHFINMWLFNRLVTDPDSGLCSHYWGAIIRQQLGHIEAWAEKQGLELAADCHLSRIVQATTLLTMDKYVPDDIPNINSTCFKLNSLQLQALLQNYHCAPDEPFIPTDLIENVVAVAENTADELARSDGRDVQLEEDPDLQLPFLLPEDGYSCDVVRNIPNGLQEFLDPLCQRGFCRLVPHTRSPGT
Kind of assay: co-immunoprecipitation with anti-FLAG mAb from transfected HEK293 cells, Western blot. In general terms: A western blot detects proteins with antibodies after separation by electrophoresis.

In assay [2] the target is HA-tagged C terminus of α-actinin-1 (HA-α-actinin-1-C; aa 406-892) (human) (UniProt P12814). Kind of assay: co-immunoprecipitation with anti-FLAG mAb from co-transfected HEK293 cells, Western blot with HA mAb.
For assay [3] the target is unchanged. Kind of assay: co-immunoprecipitation with anti-FLAG mAb from co-transfected HEK293 cells, Western blot.

Results are given in words; binding and its absence hold for the method and conditions named. In cells and extracts the contact can be indirect. Some results given as binding are weak or reduced against the parent protein; the word gives no strength. Where a sequence is shown, tags or fusion partners need not be part of it.

B1: FLAG-tagged mADIP-C (aa 339-615) (protein, not shown: small tags and cut ends)
chain: LTNSIRKQWRILKSHVEKLDNQASKVHSEGLNEEDVISRQDHEQETEKLELEIERCKEMIKAQQQLLQQQLATTCDDDTTSLLRDCYLLEEKERLKEEWTLFKEQKKNFERERRSFTEAAIRLGLERKAFEEERASWVKQQFLNMTNFDHQNSENVKLFSAFSGSSDPDNLIVHSRPRQKKLHSVANGVPACTSKLTKSLPASPSTSDFRQTHSCVSEHSSISVLNITPEESKPSEVARESTDQKWSVQSRPSSREGCYSGCSSAFRSAHGDRDDLP
Take B1: the binding result in assay [1] is listed as “binds”.

B2: FLAG-tagged mADIP-M (FLAG-mADIP-M; aa 152-436) (protein, not shown: small tags and cut ends)
chain: MIGLQERDRQLQCKNRSLHQLLKNEKDEVQKLQNIIASRATQYNHDVKRKEREYNKLKERLHQLVMNKKDKNIAMDVLNYVGRADGKRGSWRTDKTEARNEDEMYKILLNDYEYRQKQILMENAELKKVLQQMKKEMISLLSPQKKKPRERAEDGTGTVAISDIEDDSGELSRDSVWGLSCDTVREQLTNSIRKQWRILKSHVEKLDNQASKVHSEGLNEEDVISRQDHEQETEKLELEIERCKEMIKAQQQLLQQQLATTCDDDTTSLLRDCYLLEEKERLKEE
With B2, the binding entry in assay [2] and in assay [3] was “binds” in each case.
